# Measurements as given in PubChem BioAssay AID529 (NMMLSC, 2006).
# Protein sequences, listed by entry. Tags and fused reporters are not part of them.
# UniProt P13612, whole entry, looked up: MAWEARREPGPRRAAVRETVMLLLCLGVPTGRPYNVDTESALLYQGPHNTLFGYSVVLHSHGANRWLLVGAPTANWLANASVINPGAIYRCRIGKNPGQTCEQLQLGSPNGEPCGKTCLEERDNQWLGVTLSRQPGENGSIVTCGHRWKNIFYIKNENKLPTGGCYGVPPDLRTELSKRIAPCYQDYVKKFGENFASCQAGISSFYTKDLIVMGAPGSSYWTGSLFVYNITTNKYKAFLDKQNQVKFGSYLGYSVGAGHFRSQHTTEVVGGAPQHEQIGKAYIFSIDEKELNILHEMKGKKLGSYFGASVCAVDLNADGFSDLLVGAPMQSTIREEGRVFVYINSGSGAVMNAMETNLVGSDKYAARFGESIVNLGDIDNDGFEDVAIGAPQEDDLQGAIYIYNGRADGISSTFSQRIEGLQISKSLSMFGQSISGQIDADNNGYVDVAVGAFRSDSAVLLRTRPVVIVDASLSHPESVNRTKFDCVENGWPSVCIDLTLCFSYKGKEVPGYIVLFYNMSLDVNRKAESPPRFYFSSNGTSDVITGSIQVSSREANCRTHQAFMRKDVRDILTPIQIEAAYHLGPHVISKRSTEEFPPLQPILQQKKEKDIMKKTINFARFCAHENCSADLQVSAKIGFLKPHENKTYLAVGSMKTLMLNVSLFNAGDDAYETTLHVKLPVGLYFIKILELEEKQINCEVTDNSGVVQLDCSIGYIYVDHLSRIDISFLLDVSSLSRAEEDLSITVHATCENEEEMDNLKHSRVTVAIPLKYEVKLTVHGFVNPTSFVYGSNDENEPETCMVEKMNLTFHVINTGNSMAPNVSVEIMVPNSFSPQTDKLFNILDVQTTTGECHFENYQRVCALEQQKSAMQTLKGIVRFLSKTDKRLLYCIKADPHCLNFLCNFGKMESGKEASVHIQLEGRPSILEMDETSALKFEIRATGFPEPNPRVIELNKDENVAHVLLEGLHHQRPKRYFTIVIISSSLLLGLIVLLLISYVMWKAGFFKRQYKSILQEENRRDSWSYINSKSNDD
# About 50 (0.2%) of roughly 24,000 compounds were called active. The shares of active, inactive and inconclusive entries below differ from those in the screen.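 How the source made its calls: active means inhibition above 50%; inconclusive means compound itself fluorescent, judged against control cell fluorescence; inactive means the rest.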
# Target: Integrin alpha-4 (Homo sapiens) (UniProt P13612)
# Test: blockers of LDV-FITC ligand binding on VLA-4 – Jurkat cells, Mn2+ activated, primary screen (AID 529);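 on inhibition: 0% = Mn2+ stimulated cells lacking compound and 100% = ligand binding without Mn2+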
# Conditions: LDV-FITC binding with Mn2+, flow cytometry; active compounds read high, screened at 10 µM (by protocol), 100% = Mn2+-driven binding gain fully reversed unless noted
row,SMILES,inhibition
1,COc1ccc(C2C(=O)N(C3CCCCC3)CC(=O)N2C2CCCC2)cc1 (centres undefined),inconclusive
2,O=C(CCC1N=C2c3ccccc3N=C(SCc3ccccc3Cl)N2C1=O)NCc1ccco1 (centres undefined),inconclusive
3,Clc1cccc(N2CCN(CCNc3nc4ccccc4n4cnnc34)CC2)c1,inconclusive
4,CCOC(=O)C(C)Sc1nnc(Cc2cc(=O)[nH]c(=O)[nH]2)n1-c1ccc(Cl)cc1 (centres undefined),inactive: -0.5%
5,CC(C)Sc1oc(-c2ccco2)nc1S(=O)(=O)c1ccccc1,inconclusive
6,COc1cc(C2Nc3cccc4cccc(c34)N2)cc(OC)c1O,inconclusive
7,COC(=O)c1cc(Nc2cc(C)nc3ncnn23)cc(C(=O)OC)c1,inconclusive
8,CCOc1cc(-c2ccccc2)nc(N)n1,inconclusive
9,Cc1nc2sc(C(c3ccccc3)N3CCN(C(=O)c4ccco4)CC3)c(O)n2n1 (centres undefined),inconclusive
10,COc1ccc(-c2cc(N3CCCC3)n3ncnc3n2)cc1,inconclusive
11,COc1ccc(-c2nnc(-c3cccs3)o2)cc1OC,inconclusive
12,COc1cc(OC)cc(C(=O)N2c3ccc(F)cc3CCC2C)c1 (centres undefined),inconclusive
13,COC(=O)C1(S(=O)(=O)c2cccc3nsnc23)CC1,inactive: -2%
14,CCOc1ccc(N(CC(=O)NCc2ccc(OC)cc2)S(=O)(=O)c2c(C)noc2C)cc1,inconclusive
15,COc1ccc(-n2ncc3c(N4CCN(c5cccc(C)c5C)CC4)ncnc32)cc1,inactive: -2%
16,CC1N=C2c3ccccc3N=C(SCc3cc(=O)n4ccccc4n3)N2C1=O (centres undefined),inactive: 7%
17,C=CCn1c(SCC2=C(C(=O)OCC)C(C)NC(=O)N2)nnc1C1CCCCC1 (centres undefined),inactive: -22%
18,CC(C)n1c(CCC(=O)O)ccc1-c1ccccc1,inactive: -13%
19,COC(=O)c1cccc(S(=O)(=O)N2CCN(c3nc4ccccc4s3)CC2)c1,inactive: -10.5%
20,FC(F)Sc1ccc(Nc2ncnc3nc[nH]c23)cc1,inconclusive
21,COc1ccccc1-c1ccc(C(=O)O)o1,inconclusive
22,CCOCCCN1CC(C(=O)NCCc2ccccc2)CC1=O (centres undefined),inconclusive
23,CCC1CCCCN1C1Sc2ccc(C(=O)OC)cc2NC1=O (centres undefined),inconclusive
24,COc1cccc2sc(N3CCN(c4nc5ccccc5s4)CC3)nc12,inconclusive

row,SMILES,inhibition
1,N#CC1=C(SCC(=O)c2cc3ccccc3oc2=O)NC(=O)C(C#N)C12CCCC2 (centres undefined),active: 68%
2,Clc1ccc(Oc2nc(Oc3ccc(Cl)cc3)nc(N3CCOCC3)n2)cc1,inconclusive
3,Cn1c(=O)oc2cc(S(=O)(=O)NCCN3CCc4ccccc4C3)ccc21,inconclusive
4,Cn1c(COc2ccc(Cl)cc2)nc2ccccc2c1=O,inconclusive
5,COc1cc2[nH]c(=O)n(CCCC(=O)NCCc3ccccc3)c(=O)c2cc1OC,inconclusive
6,COc1cc(C)c(N)cc1C(C)C,inactive: -11%
7,CCOC(=O)c1[nH]c(C)c(C(=O)N2CCN(c3ccc(F)cc3)CC2)c1C,inconclusive
8,c1ccc2c(NC3CCCC3)nnc(NC3CCCC3)c2c1,inconclusive
9,COc1ccc(OC)c(NC(=O)C2CCCN(S(=O)(=O)c3cccc4cccnc34)C2)c1 (centres undefined),inconclusive
10,Cc1nc(SCc2cccc(F)c2)[nH]c(=O)c1C#N,inconclusive
11,CN1CCN(CCCNc2nc3ccccc3c3nc(-c4ccccc4)nn23)CC1,inconclusive
12,O=C(CC1N=C2c3ccccc3N=C(SCc3ccc(Cl)cc3)N2C1=O)NCc1ccco1 (centres undefined),inconclusive
13,c1cc2c(cc1C1CCCN1)OCCCO2 (centres undefined),inactive: -7%
14,COCCn1nnnc1C(C(C)C)N(Cc1cccnc1)Cc1ccccc1Cl (centres undefined),inactive: -4%
15,Cc1cc(=O)n2nc(N3CCCC3C(=O)NCCCN3CC(C)CC(C)C3)sc2n1 (centres undefined),"inactive: -1% [active compounds read high, 100% = Mn2+-driven binding gain fully reversed, screened at 10 µM (by protocol)]"
16,O=C(NCC(c1cccnc1)N1CCN(c2ccc(F)cc2)CC1)c1ccc2c(c1)OCO2 (centres undefined),inconclusive
17,COc1ccc(-c2cc(C(F)(F)F)nc(N3CCOCC3)n2)cc1OC,inactive: 12.2%
18,COc1ccc(-n2ccnc2SCC(=O)Nc2ccc(OC)cc2OC)cc1,inactive: 18%
19,COC(=O)c1ccc(NC(=O)CN(c2ccc(C)cc2)S(=O)(=O)c2c(C)n[nH]c2C)cc1,inconclusive
20,COc1ccc(NC(=O)CSC2=NC(=O)CC(C)=N2)cc1,inconclusive
21,O=C(CCCCCn1c(SCC(=O)c2ccccc2)nc2ccccc2c1=O)NCc1ccco1,inconclusive
22,CC(=Nc1cccc(O)c1)c1sc2ccccc2c1O,inconclusive
23,Cc1ccc2c(c1)[nH]c1c(N3CCN(Cc4ccccc4)CC3)ncnc12,inconclusive
24,Cc1ccc2c(c1)c1c3n2CC(=C2C(=O)OC(C)(C)OC2=O)NC3CCC1 (centres undefined),inconclusive

# 2 entries from above, bar-delimited.
row | SMILES | inhibition
12 | COc1cc(OC)cc(C(=O)N2c3ccc(F)cc3CCC2C)c1 (centres undefined) | inconclusive
13 | COC(=O)C1(S(=O)(=O)c2cccc3nsnc23)CC1 | inactive: -2%

# Next part.

row,SMILES,inhibition
1,Cc1ccc(/C=c2\sc3nc(-c4cccnc4)nn3c2=O)cc1,inconclusive
2,Cc1onc(-c2c(Cl)cccc2Cl)c1C(=O)NCC1CCCO1 (centres undefined),inconclusive
3,CN1CCN(C(=O)C2CCC(CNS(=O)(=O)c3cccc4cccnc34)CC2)CC1 (centres undefined),inconclusive
4,C=CCn1c(SCn2nnc3ccccc3c2=O)nnc1-c1ccc(Br)cc1,inconclusive
5,O=S(=O)(c1ccc(OCC(O)CN2CCc3ccccc3C2)cc1)N1CCOCC1 (centres undefined),inactive: 1.5%
6,C=CCOC(=O)C1=C(C)Nc2nnnn2C1c1cccc(OC)c1OC (centres undefined),inconclusive
7,O=C(c1ccc(CS(=O)(=O)c2c(Cl)cccc2Cl)o1)N1CCN(c2ccccn2)CC1,inconclusive
8,COc1ccc(-c2nnc(SCc3nnc(-c4ccc(Cl)cc4)o3)n2-c2ccccc2)cc1,inactive: -5.5%
9,c1ccc(Cc2ccc(OCCn3cncn3)cc2)cc1,inconclusive
10,O=C(NC1(O)C(=O)c2ccccc2C1=O)c1ccccc1,inconclusive
11,COCCCNC(=O)CS(=O)(=O)Cc1nc(-c2cccc(OC)c2)oc1C,inactive: 11%
12,CCCCC1(Cc2ccc([N+](=O)[O-])cc2)C(=O)N(c2ccccc2)N(c2ccccc2)C1=O,inactive: 10%
13,COCCn1c(=NC(=O)CSCC(=O)Nc2cc(C)on2)sc2cc(C(=O)OC)ccc21,inactive: 1%
14,COc1cc(/C=c2\sc3nc(-c4ccncc4)nn3c2=O)ccc1OC(C)=O,inconclusive
15,COc1ccc(N(CC(=O)Nc2cccc(OC)c2)S(=O)(=O)c2c(C)nn(C)c2C)cc1,inactive: 22%
16,O=C(c1ccc2ccccc2n1)N1CCN(c2ccccc2)CC1,inconclusive
17,COCCN1C(=O)C(=O)/C(=C(/O)c2cccc(S(=O)(=O)N(C)C)c2)C12C(=O)N(C)c1ccccc12 (centres undefined),inactive: -2%
18,Cc1noc(C)c1S(=O)(=O)N1CCCC(C(=O)NCCC2=CCCCC2)C1 (centres undefined),inconclusive
19,Cc1cc(N2CCN(C(c3ccccc3)c3ccc(Cl)cc3)CC2)n2ncnc2n1 (centres undefined),inconclusive
21,CCN1CCCC1CNC(=O)CCc1nc(-c2ccc(C)cc2)no1 (centres undefined),inconclusive
22,CC(=O)C1C(c2cn(-c3ccccc3)nc2-c2cccs2)NC(=O)NC1(O)C(F)(F)F (centres undefined),inconclusive
23,CCC1c2ccc(C)n2CCN1C(=O)Nc1cc(Cl)ccc1OC (centres undefined),inconclusive
24,COc1ccccc1OCC(O)Cn1nc(C)cc1C (centres undefined),inconclusive

# An excerpt from above in order of molar mass, largest number first:
row,SMILES,inhibition
5,O=S(=O)(c1ccc(OCC(O)CN2CCc3ccccc3C2)cc1)N1CCOCC1 (centres undefined),inactive: 1.5%
3,CN1CCN(C(=O)C2CCC(CNS(=O)(=O)c3cccc4cccnc34)CC2)CC1 (centres undefined),inconclusive
11,COCCCNC(=O)CS(=O)(=O)Cc1nc(-c2cccc(OC)c2)oc1C,inactive: 11%
23,CCC1c2ccc(C)n2CCN1C(=O)Nc1cc(Cl)ccc1OC (centres undefined),inconclusive
24,COc1ccccc1OCC(O)Cn1nc(C)cc1C (centres undefined),inconclusive

# (continued)

row,SMILES,inhibition
1,CC(C)Cc1cc(C(=O)Nc2cc(Br)ccc2O)no1,inconclusive
2,CS(=O)(=O)c1nc(-c2cccs2)cc(C(F)(F)F)n1,inconclusive
3,O=C(CCn1c(=O)oc2ccccc21)NCc1cccs1,inconclusive
4,COc1ccc(OC)c(CCNC(=O)CC2Oc3ccc(C)cc3NC2=O)c1 (centres undefined),inconclusive
5,CCC(C)N(CCNC(=O)CC1Oc2ccc(C)cc2NC1=O)C1CCCCC1 (centres undefined),inconclusive
6,CCN(CC)S(=O)(=O)c1ccc(C(=O)NCCc2cc3c(OC)ccc(OC)c3[nH]c2=O)cc1,inconclusive
7,C=CCn1nnc2sc3c(c2c1=O)CCC(C)C3 (centres undefined),inactive: -5%
8,CCOc1ccccc1NC(=O)C1CCCN(S(=O)(=O)c2cccc3nsnc23)C1 (centres undefined),inconclusive
9,COc1cc(N2C(=O)NC3CC2(C)Oc2ccccc23)cc(OC)c1OC (centres undefined),inactive: -4%
10,Cc1ccc(C2=CC(c3ccc(N(C)C)cc3)n3nnnc3N2)cc1 (centres undefined),inconclusive
11,CCN1CCN(C(=O)c2ccc3c(c2)N(Cc2ccc(F)cc2)C(=O)c2ccccc2S3=O)CC1 (centres undefined),inactive: -2%
12,O=C(Nc1c2c(nn1-c1ccc(F)cc1)CS(=O)C2)C12CC3CC(CC(C3)C1)C2 (centres undefined),inconclusive
13,Cc1ccc(C2C3=C(CC(C)(C)CC3=O)N(CCN3CCOCC3)C3=C2C(=O)CC(C)(C)C3)cc1,inconclusive
14,CC1=C(C(=O)NC(C)C)C2(CCC(C)CC2)OC1=O (centres undefined),inconclusive
15,O=C1c2oc3ccccc3c(=O)c2C(c2cccc(O)c2)N1c1ccccn1 (centres undefined),inconclusive
16,CCCCNc1cc(C(=O)O)cc(S(N)(=O)=O)c1Oc1ccccc1,inactive: -38%
17,O=C(CSc1nc2c(cnn2-c2ccccc2)c(=O)[nH]1)c1ccc(Cl)cc1,inconclusive
18,O=C(C1CCN(S(=O)(=O)c2cccnc2)CC1)N1CCN(c2ccc(Cl)cc2)CC1,inconclusive
19,CCn1nnnc1NCc1cccn1C,inactive: -12.5%
20,CC(=O)N1c2ccc(S(=O)(=O)CCC(=O)O)cc2CC1C (centres undefined),active: 61%
21,CS(=O)(=O)c1nc(-c2ccccc2)cc(C(F)(F)F)n1,inconclusive
22,O=C(NC1(C(F)(F)F)N=C2SCCN2C1=O)c1ccco1 (centres undefined),"inactive: -21% [active compounds read high, 100% = Mn2+-driven binding gain fully reversed, screened at 10 µM (by protocol)]"
